In patent US20210371524A1 (VOR BIOPHARMA, published 2021):
Residue numbers refer to the chain shown, from its start. These are yes or no findings as the source states them, for the method shown. Some entries that bind do so weakly or less than the wild type. Blank lines part the entries; values can stand above or below the binder they belong to.

Amino acid sequences for entries named in this document (tags omitted). A change or cut given only in a name is not applied to a line headed by its entry.
UniProt P08575: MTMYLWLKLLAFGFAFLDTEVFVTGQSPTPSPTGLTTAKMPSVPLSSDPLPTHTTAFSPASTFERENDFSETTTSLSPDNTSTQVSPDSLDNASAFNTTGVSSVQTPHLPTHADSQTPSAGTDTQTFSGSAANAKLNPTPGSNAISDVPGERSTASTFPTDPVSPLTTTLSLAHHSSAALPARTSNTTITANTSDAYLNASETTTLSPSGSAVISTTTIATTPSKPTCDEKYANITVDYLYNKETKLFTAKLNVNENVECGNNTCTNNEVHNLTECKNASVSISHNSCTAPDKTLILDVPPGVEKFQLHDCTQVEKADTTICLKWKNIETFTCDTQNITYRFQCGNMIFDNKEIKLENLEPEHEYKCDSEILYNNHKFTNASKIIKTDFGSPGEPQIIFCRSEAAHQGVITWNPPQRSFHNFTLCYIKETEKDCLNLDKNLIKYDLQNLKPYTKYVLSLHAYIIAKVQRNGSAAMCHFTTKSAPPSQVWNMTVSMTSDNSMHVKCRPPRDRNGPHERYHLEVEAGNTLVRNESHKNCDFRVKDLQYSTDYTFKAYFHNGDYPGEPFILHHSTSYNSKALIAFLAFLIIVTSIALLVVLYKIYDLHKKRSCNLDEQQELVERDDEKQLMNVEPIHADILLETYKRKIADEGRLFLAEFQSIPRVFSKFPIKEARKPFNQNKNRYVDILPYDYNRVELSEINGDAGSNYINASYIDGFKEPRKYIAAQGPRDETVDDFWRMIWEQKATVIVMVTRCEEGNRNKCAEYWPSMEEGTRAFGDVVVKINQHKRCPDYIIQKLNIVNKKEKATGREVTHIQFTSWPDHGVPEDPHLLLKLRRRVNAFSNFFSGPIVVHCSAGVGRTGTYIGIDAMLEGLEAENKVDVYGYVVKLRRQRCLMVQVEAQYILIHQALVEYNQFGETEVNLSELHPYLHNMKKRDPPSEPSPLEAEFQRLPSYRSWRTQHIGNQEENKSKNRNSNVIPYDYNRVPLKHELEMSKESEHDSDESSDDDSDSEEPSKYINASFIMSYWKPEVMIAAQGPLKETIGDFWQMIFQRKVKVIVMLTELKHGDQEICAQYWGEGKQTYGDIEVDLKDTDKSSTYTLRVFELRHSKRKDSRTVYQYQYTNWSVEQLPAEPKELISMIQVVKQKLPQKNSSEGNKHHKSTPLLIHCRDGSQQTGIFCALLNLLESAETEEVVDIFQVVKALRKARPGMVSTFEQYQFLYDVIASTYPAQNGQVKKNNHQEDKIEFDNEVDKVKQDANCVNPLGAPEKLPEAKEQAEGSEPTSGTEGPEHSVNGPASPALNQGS

Assays:
[1] = target: Human CD45RABC Antigen (Fragment of Human CD45RABC Isoform) (human) (UniProt P08575); test: statement in the epitope mapping example
[2] = target: Human CD45RABC Antigen (Fragment of Human CD45RABC Isoform) (human) (UniProt P08575); test: Octet binding experiments

B1: AbA chimera (chimeric Antibody A, human IgG1) (antibody, V domains shown)
VH: EVQLVESGGDRVQPGRSLTLSCVTSGFTFNNYWMTWIRQVPGKGLEWVASISSSGGSIYYPDSVKGRFTISRDNAKNTLYLQMNSLRSEDTATYYCARDERWAGAMDAWGQGTSVTVSS
VL: DIQMTQSPPVLSASVGDRVTLSCKASQNINKNLDWYQQKHGEAPKLLIYETNNLQTGIPSRFSGSGSGTDYTLTISSLQPEDVATYYCYQHNSRFTFGSGTKLEIK
notes: also called chimeric AbA
binding [1]: binds

B2: AbA (rat anti-human CD45 monoclonal clone, before chimerisation) (antibody, V domains shown)
VH: B1 VH
VL: B1 VL
binding [2]: binds

Further lines, results first:

binding [2]: binds
B3: AbB (rat anti-human CD45 monoclonal clone, before chimerisation) (antibody, V domains shown)
VH: EVQLVESGGDLVQPGRSLKLSCIASGFTFTNFWMTWIRQVSGKGLEWVASISSSGGSIYYPDSVKDRFTISRDNAKNTLYLQMNSLRSEDTATYYCVKLHYYSGGGDAWGQGTSVTVSS
VL: DIQMTQSPSFLSASVGDRVTINCKASQNINKYLDWYQQKHGEAPKLLIHYTNNLHTGIPSRFSGSGSGTDYTLTISSLQPEDVATYFCLQHSSRWTFGGGTKLELK

binding [2]: binds
B4: AbC (rat anti-human CD45 monoclonal clone, before chimerisation) (antibody, V domains shown)
VH: B3 VH with I23V, T30N, F32Y, S41P, Y80F, V97A, K98R, H100Y
VL: B3 VL with N22I, N28D, H40L, H49Y, Y50N, S92I
